In article PMC11665234:
These are yes or no findings as the source states them, for the method shown. Binding seen in cells or lysates may run through a third protein. Some results given as binding are weak or reduced against the parent protein; the word gives no strength.

Molecular target: T1, Tripartite motif 13 (human (endogenous in NSCLC cells)) (UniProt O60858)
T1 sequence: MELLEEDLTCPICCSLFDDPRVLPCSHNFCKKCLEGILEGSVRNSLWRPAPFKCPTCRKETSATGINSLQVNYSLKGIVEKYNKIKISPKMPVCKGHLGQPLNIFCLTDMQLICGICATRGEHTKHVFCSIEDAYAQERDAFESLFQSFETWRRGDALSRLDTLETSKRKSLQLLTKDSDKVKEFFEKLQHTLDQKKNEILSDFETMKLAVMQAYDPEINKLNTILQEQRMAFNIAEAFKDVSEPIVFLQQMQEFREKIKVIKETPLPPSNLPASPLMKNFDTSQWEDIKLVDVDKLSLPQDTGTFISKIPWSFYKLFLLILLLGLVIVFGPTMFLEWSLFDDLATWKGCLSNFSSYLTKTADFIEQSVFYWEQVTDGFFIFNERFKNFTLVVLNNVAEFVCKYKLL
Assay: co-IP; cell lysate (150 mmol/L NaCl, 50 mmol/L Tris-HCl pH 7.6, 1% NP-40, 1 mmol/L EDTA) incubated with TRIM13 antibody or control IgG at 4 C, protein A/G plus agarose beads overnight at 4 C, three washes; Western blot for ANXA8

binding: binds
B1: Annexin A8 (protein, UniProt P13928 1-327)
chain: MAWWKSWIEQEGVTVKSSSHFNPDPDAETLYKAMKGIGTNEQAIIDVLTKRSNTQRQQIAKSFKAQFGKDLTETLKSELSGKFERLIVALMYPPYRYEAKELHDAMKGLGTKEGVIIEILASRTKNQLREIMKAYEEDYGSSLEEDIQADTSGYLERILVCLLQGSRDDVSSFVDPGLALQDAQDLYAAGEKIRGTDEMKFITILCTRSATHLLRVFEEYEKIANKSIEDSIKSETHGSLEEAMLTVVKCTQNLHSYFAERLYYAMKGAGTRDGTLIRNIVSRSEIDLNLIKCHFKKMYGKTLSSMIMEDTSGDYKNALLSLVGSDP
